Test results: PubChem BioAssay AID330 (DTP/NCI, 2004)
The list shows only some results of the screen, not a fair sample: it is rich in T/C values a quarter to a half above the control, in often repeated tests (any T/C) and in doses without a T/C. Other doses and runs of a compound stand elsewhere. T/C gives the treated animals as a percentage of the vehicle group. Some doses have a count of surviving animals in place of a T/C: the source holds a T/C of zero for them, seemingly a mark for toxic or unscored doses. Some survivor counts are full or nearly so, which does not show that the dose was tolerated: the source hardly ever lists a survival T/C far under the control, and the zero likely stands for such cases as well. Survivors were counted at the toxicity check, usually on the fifth day, unless a day is given; later deaths do not show. Schedules are NCI's codes, read here as Q, the interval in days (D) or hours (H), X, the number of doses. Some entries were tested several times; their values stand side by side, smallest first. For survival time, this PubChem deposit counts one and a half times the control or more as active, and values a quarter to a half above the control carry no call in these data; other NCI protocols may use other cut-offs. Counts like (3×) count equal records among those shown. Some T/C values are followed by the survivors on the day toxicity was checked, most often the fifth; without a count, all were alive then.

Test system: P388 leukemia ip, CD2F1 mice, survival T/C
Experiment: NCI In Vivo Anticancer Drug Screen. Data for tumor model P388 Leukemia (intraperitoneal) in CD2F1 (CDF1) mice
Conditions: T/C endpoint: median survival time, higher T/C = longer survival
[1] = dose: 200.0 mg/kg/injection, schedule: Q01DX009 (ip), vehicle: saline with Tween-80
[2] = dose: 5.0 mg/kg/injection, schedule: Q01DX005 (ip), vehicle: saline

## Nc1ccc2c(c1)CN1C(=O)c3ccccc3C1=N2
dose: 6.25 mg/kg/injection, schedule: Q01DX009 (ip), vehicle: saline
  survivor count: 6 of 6
dose: 12.5 mg/kg/injection, schedule: Q01DX009 (ip), vehicle: saline
  survivor count: 6 of 6
dose: 33.0 mg/kg/injection, schedule: Q01DX009 (ip), vehicle: saline with Tween-80, evaluated on day 29
  T/C: 138 % of control
dose: 33.0 mg/kg/injection, schedule: Q01DX009 (ip), vehicle: saline with Tween-80, evaluated on day 30
  T/C: 131 and 147 % of control
dose: 33.0 mg/kg/injection, schedule: Q01DX009 (ip), vehicle: saline with Tween-80, evaluated on day 45
  T/C: 99, 103, 105, 114, 115, 118 % of control
dose: 33.0 mg/kg/injection, schedule: Q01DX009 (ip), vehicle: saline with Tween-80, evaluated on day 60
  T/C: 99 and 100 % of control
dose: 33.4 mg/kg/injection, schedule: Q01DX009 (ip), vehicle: saline with Tween-80
  T/C: 136 % of control
dose: 50.0 mg/kg/injection, schedule: Q01DX009 (ip), vehicle: saline with Tween-80, evaluated on day 29
  T/C: 142 % of control
dose: 50.0 mg/kg/injection, schedule: Q01DX009 (ip), vehicle: saline with Tween-80, evaluated on day 30
  T/C: 112, 118, 133, 156, 158, 161 % of control
dose: 50.0 mg/kg/injection, schedule: Q01DX009 (ip), vehicle: saline with Tween-80, evaluated on day 45
  T/C: 97, 105, 111, 114, 124, 125 % of control
dose: 50.0 mg/kg/injection, schedule: Q01DX009 (ip), vehicle: saline with Tween-80, evaluated on day 60
  T/C: 92 and 117 % of control
dose: 70.0 mg/kg/injection, schedule: Q01DX009 (ip), vehicle: saline with Tween-80
  T/C: 141 % of control
dose: 75.0 mg/kg/injection, schedule: Q01DX009 (ip), vehicle: saline with Tween-80, evaluated on day 29
  T/C: 148 % of control
dose: 75.0 mg/kg/injection, schedule: Q01DX009 (ip), vehicle: saline with Tween-80, evaluated on day 30
  T/C: 148, 156, 200 % of control
dose: 75.0 mg/kg/injection, schedule: Q01DX009 (ip), vehicle: saline with Tween-80, evaluated on day 45
  T/C: 111, 113, 130, 136, 138 % of control (2×)
dose: 75.0 mg/kg/injection, schedule: Q01DX009 (ip), vehicle: saline with Tween-80, evaluated on day 60
  T/C: 100 and 105 % of control
dose: 112.0 mg/kg/injection, schedule: Q01DX009 (ip), vehicle: saline with Tween-80, evaluated on day 29
  T/C: 120 % of control
dose: 112.0 mg/kg/injection, schedule: Q01DX009 (ip), vehicle: saline with Tween-80, evaluated on day 30
  T/C: 118 and 169 % of control
dose: 112.0 mg/kg/injection, schedule: Q01DX009 (ip), vehicle: saline with Tween-80, evaluated on day 45
  T/C: 110, 111, 112, 122 (2×), 130 % of control
dose: 112.0 mg/kg/injection, schedule: Q01DX009 (ip), vehicle: saline with Tween-80, evaluated on day 60
  T/C: 128 % of control (2×)
dose: 169.0 mg/kg/injection, schedule: Q01DX009 (ip), vehicle: saline with Tween-80, evaluated on day 30
  T/C: 118 % of control
dose: 169.0 mg/kg/injection, schedule: Q01DX009 (ip), vehicle: saline with Tween-80, evaluated on day 45
  T/C: 101 and 104 % of control
dose: 169.0 mg/kg/injection, schedule: Q01DX009 (ip), vehicle: saline with Tween-80, evaluated on day 60
  T/C: 96 % of control
[1]
  survivor count: 6 of 6

## C=CCC1=C(C2CO2)C(=O)c2ccccc2C1=O (stereo not given)
dose: 25.0 mg/kg/injection, schedule: Q01DX005 (ip), vehicle: Klucel (hydroxypropylcellulose) (HPC)
  survivor count: 0 of 6
dose: 50.0 mg/kg/injection, schedule: Q01DX005 (ip), vehicle: Klucel (hydroxypropylcellulose) (HPC)
  survivor count: 0 of 6
dose: 100.0 mg/kg/injection, schedule: Q01DX005 (ip), vehicle: Klucel (hydroxypropylcellulose) (HPC)
  survivor count: 0 of 6
dose: 200.0 mg/kg/injection, schedule: Q01DX005 (ip), vehicle: Klucel (hydroxypropylcellulose) (HPC)
  survivor count: 0 of 6

## O=C(CC(=O)C(F)(F)F)c1cc2ccccc2s1
[1]
  survivor count: 0 of 6

## CC1(C)OC(=O)N=C1c1ccc(Cl)cc1
dose: 240.0 mg/kg/injection, schedule: Q01DX005 (ip), vehicle: Klucel (hydroxypropylcellulose) (HPC)
  survivor count: 0 of 6

## COc1ccc(C(=O)CCN(C)C)cc1
dose: 200.0 mg/kg/injection, schedule: Q01DX009 (ip), vehicle: saline
  survivor count: 5 of 6

## C=CC(O)C(C)C(=O)O (stereo not given)
dose: 50.0 mg/kg/injection, schedule: Q01DX005 (ip), vehicle: saline with Tween-80
  survivor count: 4 of 5

## NCCNC(c1ccccc1)C(O)c1ccccc1 (stereo not given)
dose: 200.0 mg/kg/injection, schedule: Q04DX002 (ip), vehicle: Klucel (hydroxypropylcellulose) (HPC)
  survivor count: 4 of 6

## CN(C)[C@@H]1C(=O)C(C(=O)NCN2CCN(C(=N)N=C(N)N)CC2)=C(O)[C@@]2(O)C(=O)C3=C(O)c4c(O)cccc4[C@@](C)(O)[C@H]3C[C@@H]12
dose: 0.31 mg/kg/injection, schedule: Q01DX005 (ip), vehicle: saline
  T/C: 126 % of control
dose: 0.62 mg/kg/injection, schedule: Q01DX005 (ip), vehicle: saline
  T/C: 117, 118, 121 (2×), 122 % of control
dose: 1.25 mg/kg/injection, schedule: Q01DX005 (ip), vehicle: saline
  T/C: 116, 120 (2×), 122, 136 % of control
dose: 1.8 mg/kg/injection, schedule: Q01DX005 (ip), vehicle: saline
  T/C: 125 % of control
dose: 1.8 mg/kg/injection, schedule: Q01DX005 (ip), vehicle: suspension in saline
  T/C: 130 % of control
dose: 2.5 mg/kg/injection, schedule: Q01DX005 (ip), vehicle: saline
  T/C: 125, 126, 131, 134, 153 % of control
dose: 3.0 mg/kg/injection, schedule: Q01DX005 (ip), vehicle: saline
  T/C: 127 % of control
dose: 3.0 mg/kg/injection, schedule: Q01DX005 (ip), vehicle: suspension in saline
  T/C: 134 % of control
[2]
  T/C: 116, 139, 161, 166, 186, 193 % of control
  survivor count: 2 of 5
dose: 5.0 mg/kg/injection, schedule: Q01DX005 (ip), vehicle: suspension in saline
  T/C: 130 % of control [5 of 6 alive]
dose: 8.32 mg/kg/injection, schedule: Q01DX005 (ip), vehicle: saline
  survivor count: 5 of 6
dose: 8.33 mg/kg/injection, schedule: Q01DX005 (ip), vehicle: suspension in saline
  survivor count: 3 of 6
dose: 10.0 mg/kg/injection, schedule: Q01DX005 (ip), vehicle: saline
  survivor count: 5 of 6
dose: 13.88 mg/kg/injection, schedule: Q01DX005 (ip), vehicle: saline
  survivor count: 1 of 6
dose: 13.89 mg/kg/injection, schedule: Q01DX005 (ip), vehicle: saline
  survivor count: 6 of 6
dose: 13.89 mg/kg/injection, schedule: Q01DX005 (ip), vehicle: suspension in saline
  survivor count: 0 of 6

## COc1cccc2cc(-n3nnc4ccccc43)c(=O)oc12
dose: 120.0 mg/kg/injection, schedule: Q01DX005 (ip), vehicle: saline with Tween-80
  survivor count: 0 of 6 and 6 of 6

## Cc1ccccc1OC(=O)Nc1ccc(C(=O)O)c(O)c1
dose: 400.0 mg/kg/injection, schedule: Q01DX001 (ip), vehicle: saline with Tween-80
  survivor count: 2 of 6

## Cn1c(=O)c2[nH]c(CN(CCCl)CCCl)nc2n(C)c1=O
dose: 1.5 mg/kg/injection, schedule: Q01DX009 (ip), vehicle: saline with Tween-80
  T/C: 127 % of control
dose: 2.25 mg/kg/injection, schedule: Q01DX009 (ip), vehicle: saline with Tween-80
  T/C: 143 % of control
dose: 2.66 mg/kg/injection, schedule: Q04DX003 (ip), vehicle: saline with Tween-80
  T/C: 127 % of control
dose: 4.0 mg/kg/injection, schedule: Q04DX003 (ip), vehicle: saline with Tween-80
  T/C: 131 % of control
dose: 4.4 mg/kg/injection, schedule: Q04DX003 (ip), vehicle: saline with Tween-80
  T/C: 140 % of control
dose: 6.0 mg/kg/injection, schedule: Q04DX003 (ip), vehicle: saline with Tween-80
  T/C: 140 % of control
dose: 15.0 mg/kg/injection, schedule: Q04DX003 (ip), vehicle: saline with Tween-80
  T/C: 145 % of control
dose: 50.0 mg/kg/injection, schedule: Q01DX009 (ip), vehicle: saline with Tween-80
  survivor count: 4 of 6
